The target in test [1] is T1, tetraspanin CD151 (human (endogenous in HCCLM3)) (UniProt P48509).
T1 sequence: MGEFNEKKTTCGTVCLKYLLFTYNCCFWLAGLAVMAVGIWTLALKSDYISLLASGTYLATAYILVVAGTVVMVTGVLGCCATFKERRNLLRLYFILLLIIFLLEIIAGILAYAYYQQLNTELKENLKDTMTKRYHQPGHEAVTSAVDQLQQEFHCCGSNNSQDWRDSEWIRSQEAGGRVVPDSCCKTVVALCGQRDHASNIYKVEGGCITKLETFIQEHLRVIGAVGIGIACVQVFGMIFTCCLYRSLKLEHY
Kind of test: condition: only CD151 immunoprecipitated with CD151 mAb 9B, an antibody against the CD151/integrin α6β1 binding site; co-IP; HCCLM3 lysate (250 mg); CD151 immunoprecipitated with CD151 mAb 9B (five milligrams), raised against the CD151/integrin α6β1 binding site; integrin α6 probed by Western blotting. A general note: Immunoblotting shows a protein as a band on a membrane.

In test [2] the target is T1, tetraspanin CD151 (human (endogenous in HCCLM3)). Kind of test: co-IP; HCCLM3 lysate; CD151 immunoprecipitated with an anti-CD151 antibody purchased from Abcam (a different epitope of CD151); integrin α6 detected by Western blotting.

Results are given in words; binding and its absence hold for the method and conditions named. In cells and extracts the contact can be indirect. For some assays here: A result given as binding can be weak or reduced; the word gives no strength.

Take “integrin α6 (human (endogenous in HCCLM3))”: the binding result in test [1] is recorded as “no binding”; in test [2], “binds”.

The values above are taken from PMC4868758.
